Laboratory results from publication PMC10516865.
The exact form of at least one protein or probe is not confirmed. Results from cells or extracts need not show a direct contact. A negative result means that nothing was seen under these conditions.

Test system: RNA polymerase II (phospho-Ser5 CTD form, detected by immunoblot) (Danio rerio (zebrafish), 5 dpf larvae)
Experiment: pull-down (immunoblot)
Settings: RNA folded in 10 mM Tris pH 7, 0.1 M KCl, 10 mM MgCl2 (1x), binding to 3 mg larval extract in RIP buffer (25 mM Tris pH 7.4, 150 mM KCl, 0.5 mM DTT, 0.5% NP-40), protein in an extract, label: 3' biotin
[1] = no statistically significant interaction

Sequence	binding result [1]	binding result (similar efficiency to terc)
CAAGAAUUCGGCUCUGC [zebrafish T1000mut aptamer (G194A)]	no binding	
CAAGAGUUCGGCUCUGC [zebrafish T1000 aptamer (P6.1 fork)]		binds
GAAGGUUUGCGGACCUCAAACACUGAUCCUGCAAAUAC [zebrafish CR7 aptamer]	no binding	
CACAGGUUUGGCUGUUUGUACGCGGACAGUUUGACUGCCGCCAAGAGUUCGGCUCUGCUGCACAUUCGGCAGGUCUGUG [zebrafish T800 aptamer (full CR4/CR5 domain)]		binds
